For 1 substance, binding results are on record in article PMC4106906.

These are yes or no findings as the source states them, for the method shown. In cells and extracts the contact can be indirect. Tags and fused reporters may be left off the sequences shown.

For this test, the target named is T1, human BIN1 isoform 1, myc-tagged (human) (UniProt O00499).
T1 sequence: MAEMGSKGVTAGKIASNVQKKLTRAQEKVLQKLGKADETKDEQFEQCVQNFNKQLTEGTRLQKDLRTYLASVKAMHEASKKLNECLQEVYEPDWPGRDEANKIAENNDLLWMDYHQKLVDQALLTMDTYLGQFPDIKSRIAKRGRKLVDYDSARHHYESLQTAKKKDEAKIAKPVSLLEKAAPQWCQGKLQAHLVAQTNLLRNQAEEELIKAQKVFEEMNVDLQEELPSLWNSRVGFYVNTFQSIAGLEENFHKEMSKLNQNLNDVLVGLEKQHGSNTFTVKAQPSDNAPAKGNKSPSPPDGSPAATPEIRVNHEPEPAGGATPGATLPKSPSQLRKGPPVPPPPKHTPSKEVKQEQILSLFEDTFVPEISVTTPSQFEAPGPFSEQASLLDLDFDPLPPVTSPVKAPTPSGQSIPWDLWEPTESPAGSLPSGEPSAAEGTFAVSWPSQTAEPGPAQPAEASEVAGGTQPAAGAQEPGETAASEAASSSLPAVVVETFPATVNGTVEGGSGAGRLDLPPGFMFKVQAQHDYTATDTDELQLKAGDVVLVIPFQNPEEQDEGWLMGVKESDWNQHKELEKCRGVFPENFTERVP
Kind of test: co-IP; co-transfection of flag-tagged iCLU mutants MT1-8 with BIN1.1; cells and immunoprecipitating antibody not told.

With “truncated iCLU MT8 (frame-shift CLU mutant lacking the C-terminus coiled-coil region) (human) (domain or fragment)”, the binding result is listed as “no binding”.
